The supplement of paper PMC7024190
Counter-ions that a name gives are not always drawn. The list shows a part of the results. Repeats in this data set agree poorly, so a single value says little.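 A first-round screen of about ten thousand compounds sought those raising reporter output, using human embryonic kidney cells briefly transfected with a plasmid carrying a Renilla luciferase gene driven by the HSV-TK promoter.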

Test system: HEK 293FT
Test: log relative Renilla luciferase luminescence (reporter expression vs reference, reference not stated) (log (base not stated)); higher = higher recombinant reporter expression
Details: 10 µM; time after transfection 48 h

Row | Compound | log
1 | Nc1nc2c(Cl)c(Cl)ccc2s1 | 0.0638
2 | Cc1ncc([N+](=O)[O-])n1CCOC(=O)c1ccccc1 [Metronidazole Benzoate] | -0.196
3 | CCOC(=O)c1c(N)sc2c1CCN(Cc1ccccc1)C2 [Tinoridine] | -0.758
4 | C[C@@H](O)[C@H]1C(=O)N2C(C(=O)O)=C(S[C@@H]3CN[C@H](CNS(N)(=O)=O)C3)[C@H](C)[C@H]12 [Doripenem] | -0.157
5 | O=C1Nc2ccccc2C1(c1ccc(O)cc1)c1ccc(O)cc1 [Oxyphenisatine] | 0.115
6 | CC(=O)SCCC(=O)N1[C@@H](C)CCC[C@H]1C(=O)O [Metiapril] | 0.0142
7 | Cc1cn([C@H]2C[C@H](N=[N+]=[N-])[C@@H](CO)O2)c(=O)[nH]c1=O [Zidovudine] | 0.00546
8 | COc1c(N2CCNC(C)C2)c(F)cc2c(=O)c(C(=O)O)cn(C3CC3)c12 (stereo unspecified) [Gatifloxacin] | 0.0854
9 | COc1ccc2c(=O)c(-c3ccc(OC)c(OC)c3)coc2c1 [Cabreuvin] | 0.148
10 | C[C@]12CCC(=O)C=C1CC[C@@H]1[C@@H]2[C@@H](O)C[C@@]2(C)[C@H]1CC[C@]2(O)C(=O)COC(=O)CCC(=O)O [Hydrocortisone hemisuccinate] | -0.218
11 | NNC(=O)CP(=O)(c1ccccc1)c1ccccc1 [Fosenazide] | -0.0558
12 | CCOC(=O)c1c(C)n(-c2ccccc2)c2ccc(O)cc12 [Oxyphemedol] | 0.104
13 | O=C1c2c(O)cccc2C([C@@H]2O[C@H](CO)[C@@H](O)[C@H](O)[C@H]2O)c2cc(CO)cc(O)c21 (stereo partly specified) [Barbaloin] | 0.00131
14 | CCC(N)C12CC3CC(CC(C3)C1)C2 (stereo unspecified) [Adapromin] | -0.176
15 | C=C1C(=O)O[C@H]2CC(=C)[C@@H](O)CC/C(C)=C/[C@@H](O)[C@H]12 [Tanachin] | -0.0641
16 | O=C(O)c1cc(O)c2c(c1)C(=O)c1cccc(O)c1C2=O [Rhein] | -0.346
17 | COc1ccc(-c2nc3cc(C4=NNC(=O)CC4C)ccc3[nH]2)cc1 (stereo unspecified) [Pimobendan] | -0.0912
18 | Nc1ccc(S(=O)(=O)Nc2nccs2)cc1 [Sulfathiazole] | 0.214
19 | CN[C@@H](CC(C)C)C(=O)N[C@H]1C(=O)N[C@H](CC(N)=O)C(=O)N[C@H]2C(=O)N[C@H]3C(=O)N[C@@H](C(=O)NC(C(=O)O)c4cc(O)cc(O)c4-c4cc3ccc4O)[C@@H](O[C@H]3C[C@](C)(N)[C@H](O)[C@@H](C)O3)c3ccc(cc3)Oc3cc2cc(c3O[C@H]2O[C@@H](CO)[C@@H](O)[C@H](O)[C@@H]2O[C@H]2C[C@](C)(N)[C@H](O)[C@@H](C)O2)Oc2ccc(cc2)[C@@H]1O (stereo partly specified) [Orienticin C] | 0.000715
20 | Cc1cc(=O)[nH]c(Nc2nc3ccccc3[nH]2)n1 | 0.0486
21 | C/C(=C\C(=O)OCCCCCCCCC(=O)O)C[C@@H]1OC[C@H](C[C@@H]2O[C@H]2[C@@H](C)[C@H](C)O)[C@@H](O)[C@H]1O [Mupirocin] | -0.101
22 | CCCOc1ccc2nc(NC(=O)OC)sc2c1 [Tioxidazole] | 0.0367
23 | CC1OC1(C)C(=O)OC1c2cc3ccc(=O)oc3cc2OC(C)(C)C1OC(=O)C1(C)OC1C (stereo unspecified) [Peuarenin] | -0.071
24 | CC(C)(S)[C@@H](N)C(=O)O [D-Penicillamine] | 0.025
25 | O=C1c2ccccc2C(=O)c2c1ccc(O)c2O [Alizarin] | -0.0545
26 | CN(C)CCC(c1ccc(Br)cc1)c1ccccn1 (stereo unspecified) [Brompheniramine Maleate] | -0.0398

3 structures out of the list, ordered by SMILES length, ascending.
Row | Compound | log
24 | CC(C)(S)[C@@H](N)C(=O)O [D-Penicillamine] | 0.025
12 | CCOC(=O)c1c(C)n(-c2ccccc2)c2ccc(O)cc12 [Oxyphemedol] | 0.104
8 | COc1c(N2CCNC(C)C2)c(F)cc2c(=O)c(C(=O)O)cn(C3CC3)c12 (stereo unspecified) [Gatifloxacin] | 0.0854
